The source of these data is PubChem BioAssay AID248 (DTP/NCI, 2004).

In the test the test system is L1210 leukemia ip in BDF1 mice, survival T/C. The test is described as follows: NCI In Vivo Anticancer Drug Screen. Data for tumor model L1210 Leukemia (intraperitoneal) in B6D2F1 (BDF1) mice. Particulars: T/C endpoint: mean survival time, higher T/C = longer survival; for T/C: schedule: Q01DX Z (ip), vehicle: methylcellulose (MC).

Structures are written as SMILES. The list shows only some results of the screen, not a fair sample: it gathers tests that were run many times, whatever their T/C, doses with no T/C, and many T/C values between a quarter and a half above the control. Further doses and runs are listed elsewhere. T/C gives the treated animals as a percentage of the vehicle group. Some entries give survivors of the animals treated and no T/C: the source holds a T/C of zero for them, seemingly a mark for toxic or unscored doses. Some survivor counts are full or nearly so, which does not show that the dose was tolerated: survival well below the control is almost never listed, so the zero probably covers shortened survival too. Counts of survivors are from the toxicity check (mostly the fifth day) where no day follows; animals may have died later. Schedule codes are those of the source, read here as Q, the interval in days (D) or hours (H), X, the number of doses. Where survival is the endpoint, this PubChem deposit counts one and a half times the control or more as active, and values a quarter to a half above the control carry no call in these data; other NCI protocols may use other cut-offs. Some schedules carry Z or #; the key to these is not given.

In the case of `Cn1cnc([N+](=O)[O-])c1Sc1nc(N)nc2c1ncn2C1OC(CO)C(O)C1O` (configuration not stated), the T/C runs as follows: (dose: 2.2 mg/kg/injection) 142 % of control; (dose: 3.3 mg/kg/injection) 148 % of control; (dose: 5.0 mg/kg/injection) 148 % of control; (dose: 7.5 mg/kg/injection) 135 % of control.

As to `C/C(=N/NC(=O)C1CCCO1)c1ccc(C)cc1` (configuration not stated), the survivor count is given as 4 of 6 (dose: 50.0 mg/kg/injection, schedule: Q01DX009 (ip), vehicle: Klucel (hydroxypropylcellulose) (HPC)); 4 of 6 (dose: 100.0 mg/kg/injection, schedule: Q01DX009 (ip), vehicle: Klucel (hydroxypropylcellulose) (HPC)); 0 of 6 (dose: 200.0 mg/kg/injection, schedule: Q01DX009 (ip), vehicle: Klucel (hydroxypropylcellulose) (HPC)); 0 of 6 (dose: 400.0 mg/kg/injection, schedule: Q01DX009 (ip), vehicle: Klucel (hydroxypropylcellulose) (HPC)).

Turning to `COC1CCC(/C=C(\C#N)C2CCC([N+](=O)[O-])CC2)CC1Br` (configuration not stated), the survivor count is on record as 0 of 3 (dose: 100.0 mg/kg/injection, schedule: Q04DX002 (ip), vehicle: saline with Tween-80); 0 of 3 (dose: 200.0 mg/kg/injection, schedule: Q04DX002 (ip), vehicle: saline with Tween-80); 0 of 3 (dose: 400.0 mg/kg/injection, schedule: Q04DX002 (ip), vehicle: saline with Tween-80).

Take `O=C(COc1ccc(Cl)c(Cl)c1)N(Cc1ccccc1)Cc1ccc[n+](Cc2ccc(S(=O)(=O)F)cc2)c1`: where the note is “dose: 400.0 mg/kg/injection, schedule: Q04DX003 (ip), vehicle: saline with Tween-80”, the survivor count is reported as 0 of 6.
